This test can be described thus: qHTS Assay for Lipid Storage Modulators in Drosophila S3 Cells.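 For cell number change: cells counted by Cell Tracker Red CMTPX staining in the red channel.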 Conditions: BODIPY lipid droplet fluorescence, 18-24 h; for cell number change: measured here: cell count max response, cells fed with added oleic acid. A digest of the protocol:
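Laser-scanning cytometry quantifies lipid droplet accumulation (500–530 nm total intensity; droplet/cell object ratio) in oleic acid-fed (400 uM added) Drosophila S3 cells treated with a concentration series. 20 uM Triacsin C defined 100% inhibition.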
A general note: Quantitative high-throughput screening tests each substance at several concentrations.

Where [1] appears, read: measured here: lipid fluorescence (Fed channel) AC50, cells fed with added oleic acid.
[2] abbreviates: measured here: cell number channel AC50, cells fed with added oleic acid.

The list shows a part of the results. Further columns of the screen follow, without active or inactive calls. Compounds called inactive in the main read-out are mostly missing here. Words in brackets tell the shape of the fitted curve; partial curves, single points and poor fits give uncertain potencies.

In the case of `O=C(CSc1nc2ccccc2o1)N1c2ccccc2Sc2ccccc21`, the cell number change worked out at 0.427%. The AC50 under setting [1] is 0.58 µM [rising, partial curve, poor fit].
For the compound `O=C(CSc1nnnn1C1CCCCC1)NCCc1ccccc1`, the cell number change is 12.6%. Also, under setting [1], the AC50 was 0.259 µM [falling, full curve, poor fit].
Regarding `Cc1ccc(C(=O)N/C(=C/c2ccc(N(C)C)cc2)C(=O)NCC2CCCO2)cc1` (configuration not stated), the cell number change is -7.5%. For the same compound, the concentration at half-maximal activity (AC50) under setting [1] is 9.2 µM [rising, single point].
Turning to `CC1CCN(S(=O)(=O)c2ccc3nc(-c4ccccn4)cc(C(=O)NCCN(C)Cc4ccccc4)c3c2)CC1`, the cell number change worked out at 26.6%.
As for `CC(=O)N1CCN(c2ccc(NC(=O)c3ccc(C)cc3)cc2)CC1`, the cell number change was -2.6%.
`COc1ccc(S(=O)(=O)Nc2nc3ccccc3s2)cc1OC`: the cell number change turned out to be 58.1%. Also, the AC50 under setting [2] is 20.6 µM [rising, single point].
As to `Cc1ccc2nc(SCC(=O)N3CCCC3)nc(=O)n2c1`, the cell number change is -75.9%. In addition, the AC50 under setting [2] was 20.6 µM [falling, partial curve, poor fit].
As to `Cc1cc(NC(c2cccnc2)c2ccc3cccnc3c2O)no1` (configuration not stated), the cell number change was 0.0646%. Under setting [1], the AC50 was 0.92 µM [rising, partial curve].
`CC(=O)Nc1ccc(OCc2nnc(-c3ccc(Cl)cc3)o2)cc1`: the concentration at half-maximal activity (AC50) under setting [2] was 0.103 µM [rising, single point].
Consider `CC(=O)NC(CC(=O)OCC(=O)N1c2ccccc2NC(=O)C1(C)C)c1ccccc1` (configuration not stated), for which the cell number change is -13.3%.
Turning to `CCOc1ccc2nc(N3CCCN(C(=O)Nc4ccccc4C)CC3)c(C#N)cc2c1`, the cell number change came out at 254%. Further, under setting [2], the AC50 was 1.16 µM [rising, partial curve]. The AC50 under setting [1] is 0.58 µM [rising, full curve].
Take `CCCC1=C(C(=O)OCC)C(c2ccc(NC(C)=O)cc2)NC(=O)N1` (configuration not stated): the cell number change was found to be 1.56%.
With `Cc1ccc(CNC(=O)c2cc3c(=O)n4ccccc4nc3n(CC3CCCO3)c2=N)cc1` (configuration not stated), the cell number change stood at 223%. Moreover, under setting [2], the concentration at half-maximal activity (AC50) was 0.461 µM [rising, partial curve, poor fit]. The AC50 under setting [1] was 0.58 µM [rising, single point].
As to `Nc1cnccc1C(=O)O`, the AC50 under setting [1] is 29.1 µM [rising, single point].
For the compound `Cc1cccc(C(=O)NCC(=O)Nc2ccncc2)c1`, the cell number change was 25.2%. The AC50 under setting [1] is 29.1 µM [rising, single point].
In the case of `CC(C)CN(CC(C)C)C(=O)Cc1coc2ccc3ccccc3c12`, the cell number change worked out at 31.7%. Besides, under setting [2], the AC50 was 7.31 µM [rising, partial curve, poor fit]. Under setting [1], the AC50 was 6.51 µM [rising, partial curve].
On to `COCCCNC(=O)c1c(N)n(/N=C/c2cccnc2)c2nc3ccccc3nc12`, for which the cell number change was 3.57%. For the same compound, the AC50 under setting [1] is 0.092 µM [rising, full curve, poor fit].
On to `COc1ccc(NC(=O)CN(C)C(=O)C(CCSC)NC(=O)c2ccccc2)cc1` (configuration not stated), for which the cell number change is -12.5%. In addition, the AC50 under setting [2] is 6.51 µM [falling, single point].
Regarding `Cc1cc(C)n(C(=O)CCN2C(=O)c3ccccc3C2=O)n1`, the cell number change is 12.6%. The AC50 under setting [1] was 2.06 µM [rising, partial curve].
`O=C(N=C1SC2CS(=O)(=O)CC2N1Cc1ccccc1Cl)C1CC1` (configuration not stated): the cell number change was -17.9%. Also, the AC50 under setting [2] is 4.11 µM [rising, single point]. Besides, the AC50 under setting [1] was 29.1 µM [rising, single point].
Regarding `NC(=O)c1ccc(NC(=O)CNC(=O)c2sc3ccccc3c2Cl)cc1`, the cell number change was -25.4%. Under setting [2], the AC50 is 1.64 µM [falling, full curve, poor fit]. Also, the AC50 under setting [1] is 29.1 µM [falling, single point].
Take `CCCCn1c(SCc2cccnc2)nc2c1c(=O)n(C)c(=O)n2C`: the AC50 by setting is: under setting [2], 3.26 µM [rising, partial curve]; under setting [1], 0.326 µM [rising, partial curve, poor fit].
With `CN(c1ccccc1)S(=O)(=O)c1ccc(C(=O)NCC(c2ccco2)N2CCCCC2)cc1` (configuration not stated), the cell number change is -14.2%.
On to `COCCN(C(=O)/C=C/c1ccccc1)c1c(N)n(Cc2ccccc2)c(=O)[nH]c1=O`, for which the cell number change is -9.05%.
For `Cc1ccc(O)c(-c2cc(C(=O)Nc3c(C)n(C)n(-c4ccccc4)c3=O)[nH]n2)c1`, the cell number change was 21%. In addition, the AC50 under setting [1] was 11.6 µM [rising, partial curve, poor fit].
For `CCOC(=O)Cc1[nH]nc2c1C(C1C=CCCC1)C(C#N)=C(N)O2` (configuration not stated), the cell number change is -44.8%. Moreover, the AC50 under setting [2] was 18.4 µM [falling, single point].
For `O=C(CSCc1ccc(Cl)cc1)NCCSCc1ccco1`, the cell number change is -21.6%. In addition, the AC50 under setting [1] was 7.31 µM [falling, partial curve, poor fit].
Take `O=C(CSc1ccc2nnc(-c3cccnc3)n2n1)Nc1ccc(F)cc1F`: the cell number change is -1.56%. For the same compound, the AC50 under setting [1] is 6.51 µM [falling, single point].
As to `Cc1cc(NC(=O)CCC(=O)N(c2ccccc2)C(C(=O)NCC2CCCO2)c2cccnc2)no1` (configuration not stated), the cell number change was -18.3%. Besides, under setting [1], the AC50 was 13 µM [falling, partial curve].
For `Cc1ccccc1N1CCN(Cc2ccc(Br)o2)CC1`, the AC50 under setting [1] was 20.6 µM [rising, single point].
In the case of `Cc1ccc(O)c(C(=O)CC(=O)c2ccccc2Cl)c1`, the cell number change is -61%. Besides, the AC50 under setting [2] was 29.1 µM [falling, single point].
In the case of `Cn1cc(CN2CCN(Cc3cccnc3)CC2)c(-c2ccc3c(c2)OCCO3)n1`, the cell number change was found to be 17%. The AC50 under setting [1] is 20.6 µM [rising, single point].
For the compound `O=C1c2ccccc2NC(c2ccccc2)N1c1ccc(O)cc1` (configuration not stated), the cell number change is -7.26%.
For `CN1CCN(NC(=O)CSc2ccc(Cl)cc2Cl)CC1`, the cell number change is -24.8%. Further, the AC50 under setting [1] is 29.1 µM [falling, single point].
Take `CCOc1ccccc1NC(=O)COC(=O)c1c[nH]c2ccccc12`: the AC50 under setting [2] was 0.58 µM [rising, single point].
`c1ccc(NC2=Nc3ccccc3CS2)cc1`: the cell number change was 1.5%. Further, under setting [1], the half-maximal activity concentration (AC50) is 6.51 µM [rising, single point].
With `CC1S/C(=C(\C#N)C(=O)NCc2ccco2)N(c2ccc(F)cc2)C1=O` (configuration not stated), the cell number change was -1.46%.
`CC(=O)Nc1ccc(S(=O)(=O)N2CCC(C(=O)NCCc3ccc(Cl)cc3)CC2)cc1`: the cell number change is 31.5%. The AC50 under setting [2] was 6.51 µM [rising, partial curve, poor fit].
On to `CCOC(=O)c1c(C)[nH]c(C(=O)CSc2nnc(C3CC3)n2N)c1C`, for which the cell number change was determined as 76.4%. In addition, the AC50 under setting [2] is 20.6 µM [rising, partial curve, poor fit]. The AC50 under setting [1] was 6.51 µM [rising, partial curve].

One may read the AC50 as the concentration at which the activity in the assay is half-maximal. Low values mean activity at low concentration, high ones activity only at high concentration.

(Values after PubChem BioAssay AID2685 (National Center for Advancing Translational Sciences (NCATS), 2010).)
